In assay [1] the target is Ran-binding protein 2 (human (endogenous in HEK293)) (UniProt P49792). Nature of the assay: co-IP.
For assay [2], the target named is ubiquitin-specific protease 9x (human (endogenous in HEK293)) (UniProt Q93008). Kind of assay: co-IP.

Protein sequences, listed by entry. Tags and fused reporters are not part of them.
UniProt P49792: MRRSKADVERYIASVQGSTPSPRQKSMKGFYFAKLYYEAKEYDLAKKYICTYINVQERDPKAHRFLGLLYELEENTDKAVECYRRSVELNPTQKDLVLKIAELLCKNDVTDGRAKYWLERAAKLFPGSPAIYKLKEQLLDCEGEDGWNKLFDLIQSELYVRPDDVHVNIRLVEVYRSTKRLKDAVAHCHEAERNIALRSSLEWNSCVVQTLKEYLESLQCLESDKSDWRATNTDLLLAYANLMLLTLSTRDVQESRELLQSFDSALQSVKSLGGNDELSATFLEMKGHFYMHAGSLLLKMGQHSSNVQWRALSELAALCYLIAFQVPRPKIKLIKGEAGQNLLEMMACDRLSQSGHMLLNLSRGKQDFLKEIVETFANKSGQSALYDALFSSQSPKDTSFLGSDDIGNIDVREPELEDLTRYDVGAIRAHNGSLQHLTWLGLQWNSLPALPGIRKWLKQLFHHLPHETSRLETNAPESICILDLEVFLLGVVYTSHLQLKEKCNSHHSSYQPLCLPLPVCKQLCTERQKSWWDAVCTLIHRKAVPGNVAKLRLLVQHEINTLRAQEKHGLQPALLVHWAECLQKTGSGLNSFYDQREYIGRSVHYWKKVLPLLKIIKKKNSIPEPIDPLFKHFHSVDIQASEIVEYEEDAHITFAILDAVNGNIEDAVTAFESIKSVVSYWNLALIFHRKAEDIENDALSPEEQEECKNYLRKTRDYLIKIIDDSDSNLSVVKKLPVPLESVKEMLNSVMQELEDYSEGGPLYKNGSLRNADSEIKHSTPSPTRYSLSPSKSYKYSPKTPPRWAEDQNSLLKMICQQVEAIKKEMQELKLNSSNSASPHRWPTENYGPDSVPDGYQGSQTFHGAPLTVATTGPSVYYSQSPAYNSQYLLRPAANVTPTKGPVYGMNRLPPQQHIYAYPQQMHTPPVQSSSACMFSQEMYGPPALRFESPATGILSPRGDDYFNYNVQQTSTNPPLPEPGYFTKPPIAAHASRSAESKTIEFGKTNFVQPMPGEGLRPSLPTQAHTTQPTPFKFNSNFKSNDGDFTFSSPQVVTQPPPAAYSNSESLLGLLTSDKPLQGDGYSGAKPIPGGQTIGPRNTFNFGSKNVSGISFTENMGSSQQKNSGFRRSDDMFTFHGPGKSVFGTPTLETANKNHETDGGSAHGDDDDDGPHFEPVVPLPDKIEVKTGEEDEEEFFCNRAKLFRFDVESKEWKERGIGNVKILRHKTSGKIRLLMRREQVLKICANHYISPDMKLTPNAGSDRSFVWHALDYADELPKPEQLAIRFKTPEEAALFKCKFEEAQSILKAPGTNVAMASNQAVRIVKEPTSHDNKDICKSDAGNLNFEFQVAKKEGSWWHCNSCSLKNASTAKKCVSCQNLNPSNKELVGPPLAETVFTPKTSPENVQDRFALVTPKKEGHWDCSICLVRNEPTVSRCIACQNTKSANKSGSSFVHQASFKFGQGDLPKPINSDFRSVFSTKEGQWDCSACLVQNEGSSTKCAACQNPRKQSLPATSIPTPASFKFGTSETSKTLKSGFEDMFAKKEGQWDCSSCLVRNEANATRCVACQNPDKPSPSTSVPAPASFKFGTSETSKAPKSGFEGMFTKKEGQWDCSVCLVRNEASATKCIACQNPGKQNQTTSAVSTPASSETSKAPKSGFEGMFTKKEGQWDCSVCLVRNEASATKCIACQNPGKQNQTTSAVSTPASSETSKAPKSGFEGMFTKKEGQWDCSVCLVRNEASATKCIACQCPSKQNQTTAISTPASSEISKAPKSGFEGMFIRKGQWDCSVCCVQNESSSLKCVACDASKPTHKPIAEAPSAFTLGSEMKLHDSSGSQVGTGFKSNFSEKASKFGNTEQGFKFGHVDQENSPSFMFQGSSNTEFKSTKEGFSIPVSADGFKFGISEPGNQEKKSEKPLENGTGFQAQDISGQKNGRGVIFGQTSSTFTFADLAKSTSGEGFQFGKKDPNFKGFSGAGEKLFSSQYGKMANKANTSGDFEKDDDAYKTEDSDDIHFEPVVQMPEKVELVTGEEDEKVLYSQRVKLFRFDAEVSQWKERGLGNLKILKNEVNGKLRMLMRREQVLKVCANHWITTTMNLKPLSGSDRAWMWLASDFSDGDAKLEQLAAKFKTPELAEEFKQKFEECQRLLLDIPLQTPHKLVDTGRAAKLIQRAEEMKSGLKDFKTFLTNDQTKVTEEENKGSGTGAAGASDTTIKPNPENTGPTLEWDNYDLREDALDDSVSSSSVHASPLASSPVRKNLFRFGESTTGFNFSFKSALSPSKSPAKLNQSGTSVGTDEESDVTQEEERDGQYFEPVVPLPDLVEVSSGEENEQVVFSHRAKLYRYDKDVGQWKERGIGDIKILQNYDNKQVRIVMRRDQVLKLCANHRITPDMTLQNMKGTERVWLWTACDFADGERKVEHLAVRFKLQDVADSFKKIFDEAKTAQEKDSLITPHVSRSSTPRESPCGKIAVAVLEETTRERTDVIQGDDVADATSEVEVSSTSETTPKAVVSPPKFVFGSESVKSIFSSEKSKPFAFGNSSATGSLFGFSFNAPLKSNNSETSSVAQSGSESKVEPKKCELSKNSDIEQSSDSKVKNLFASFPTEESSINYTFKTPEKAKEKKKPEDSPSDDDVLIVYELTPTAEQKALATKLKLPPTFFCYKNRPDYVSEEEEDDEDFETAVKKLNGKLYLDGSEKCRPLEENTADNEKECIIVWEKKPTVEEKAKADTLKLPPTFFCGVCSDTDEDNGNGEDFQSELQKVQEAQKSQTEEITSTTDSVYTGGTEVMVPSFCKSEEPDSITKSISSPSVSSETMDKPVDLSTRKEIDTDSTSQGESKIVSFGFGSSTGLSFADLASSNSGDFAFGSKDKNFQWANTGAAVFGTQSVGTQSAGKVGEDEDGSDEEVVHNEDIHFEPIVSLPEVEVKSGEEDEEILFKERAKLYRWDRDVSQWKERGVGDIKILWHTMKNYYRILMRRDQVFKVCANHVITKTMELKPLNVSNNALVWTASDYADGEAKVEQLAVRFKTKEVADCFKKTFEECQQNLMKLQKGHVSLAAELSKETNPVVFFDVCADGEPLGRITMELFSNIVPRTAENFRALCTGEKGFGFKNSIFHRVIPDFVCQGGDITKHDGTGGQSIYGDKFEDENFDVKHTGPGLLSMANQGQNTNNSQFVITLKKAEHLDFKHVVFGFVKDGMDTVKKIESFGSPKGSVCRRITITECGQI
UniProt Q93008: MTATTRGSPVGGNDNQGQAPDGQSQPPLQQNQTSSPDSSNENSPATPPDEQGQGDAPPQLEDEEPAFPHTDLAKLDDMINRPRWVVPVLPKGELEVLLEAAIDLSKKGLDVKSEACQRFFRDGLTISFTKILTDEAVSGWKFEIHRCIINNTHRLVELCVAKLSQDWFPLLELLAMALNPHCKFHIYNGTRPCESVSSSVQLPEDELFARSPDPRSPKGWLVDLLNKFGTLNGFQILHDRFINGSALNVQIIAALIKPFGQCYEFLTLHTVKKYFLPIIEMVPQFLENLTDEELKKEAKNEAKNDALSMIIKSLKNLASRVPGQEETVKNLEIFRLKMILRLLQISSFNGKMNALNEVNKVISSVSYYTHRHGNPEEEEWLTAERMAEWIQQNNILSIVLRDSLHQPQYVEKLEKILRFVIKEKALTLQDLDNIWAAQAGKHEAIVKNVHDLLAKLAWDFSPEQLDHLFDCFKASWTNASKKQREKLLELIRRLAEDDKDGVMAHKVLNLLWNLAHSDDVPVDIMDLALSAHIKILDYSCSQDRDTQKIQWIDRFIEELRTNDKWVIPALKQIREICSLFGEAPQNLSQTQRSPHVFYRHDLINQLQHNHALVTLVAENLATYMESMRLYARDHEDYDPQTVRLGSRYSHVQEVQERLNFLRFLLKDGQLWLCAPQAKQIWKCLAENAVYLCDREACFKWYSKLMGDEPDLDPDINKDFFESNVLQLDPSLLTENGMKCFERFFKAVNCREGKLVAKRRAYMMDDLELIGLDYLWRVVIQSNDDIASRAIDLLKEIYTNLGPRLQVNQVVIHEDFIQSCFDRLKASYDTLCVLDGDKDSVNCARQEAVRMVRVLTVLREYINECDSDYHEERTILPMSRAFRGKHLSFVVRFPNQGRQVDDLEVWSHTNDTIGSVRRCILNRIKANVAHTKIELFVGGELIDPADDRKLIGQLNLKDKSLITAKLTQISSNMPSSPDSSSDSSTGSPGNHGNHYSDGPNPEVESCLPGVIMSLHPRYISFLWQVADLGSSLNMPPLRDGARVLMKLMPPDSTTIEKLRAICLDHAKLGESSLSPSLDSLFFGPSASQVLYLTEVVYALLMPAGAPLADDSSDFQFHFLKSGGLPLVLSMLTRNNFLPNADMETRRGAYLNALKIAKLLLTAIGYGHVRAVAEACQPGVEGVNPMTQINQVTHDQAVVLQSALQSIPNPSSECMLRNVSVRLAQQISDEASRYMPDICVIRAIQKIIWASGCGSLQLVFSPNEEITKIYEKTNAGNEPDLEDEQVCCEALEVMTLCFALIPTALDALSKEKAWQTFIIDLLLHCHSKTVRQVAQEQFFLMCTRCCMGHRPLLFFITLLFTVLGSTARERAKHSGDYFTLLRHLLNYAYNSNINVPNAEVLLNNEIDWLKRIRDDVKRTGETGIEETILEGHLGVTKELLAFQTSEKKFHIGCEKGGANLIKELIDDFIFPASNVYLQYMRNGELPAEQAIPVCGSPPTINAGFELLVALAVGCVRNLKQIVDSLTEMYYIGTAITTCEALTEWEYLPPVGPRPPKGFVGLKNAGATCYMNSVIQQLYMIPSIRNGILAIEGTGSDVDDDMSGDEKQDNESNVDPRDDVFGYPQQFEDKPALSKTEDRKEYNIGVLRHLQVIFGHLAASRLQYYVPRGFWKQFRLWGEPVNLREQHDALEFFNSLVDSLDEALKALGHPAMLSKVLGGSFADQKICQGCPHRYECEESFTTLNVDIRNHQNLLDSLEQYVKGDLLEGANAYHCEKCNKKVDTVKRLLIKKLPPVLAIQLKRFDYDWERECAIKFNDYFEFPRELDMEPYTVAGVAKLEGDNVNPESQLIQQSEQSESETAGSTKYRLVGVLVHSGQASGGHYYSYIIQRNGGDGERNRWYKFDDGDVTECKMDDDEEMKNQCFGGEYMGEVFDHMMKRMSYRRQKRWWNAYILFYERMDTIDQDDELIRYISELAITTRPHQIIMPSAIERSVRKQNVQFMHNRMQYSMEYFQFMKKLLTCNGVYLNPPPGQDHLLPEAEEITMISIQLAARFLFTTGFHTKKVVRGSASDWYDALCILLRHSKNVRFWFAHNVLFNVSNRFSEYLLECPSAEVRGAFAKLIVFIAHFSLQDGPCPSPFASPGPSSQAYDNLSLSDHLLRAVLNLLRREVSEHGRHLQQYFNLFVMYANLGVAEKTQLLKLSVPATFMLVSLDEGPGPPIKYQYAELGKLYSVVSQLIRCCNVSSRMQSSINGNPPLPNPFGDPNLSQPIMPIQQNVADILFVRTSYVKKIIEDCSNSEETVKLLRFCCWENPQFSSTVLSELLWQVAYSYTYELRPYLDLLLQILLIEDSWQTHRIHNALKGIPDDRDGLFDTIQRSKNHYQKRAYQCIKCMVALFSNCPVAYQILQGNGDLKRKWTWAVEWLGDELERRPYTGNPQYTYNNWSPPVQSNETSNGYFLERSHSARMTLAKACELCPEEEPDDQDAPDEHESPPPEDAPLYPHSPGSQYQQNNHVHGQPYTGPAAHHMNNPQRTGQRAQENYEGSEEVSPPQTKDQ

Results are given in words; binding and its absence hold for the method and conditions named. In cells and extracts the contact can be indirect. Some binding calls cover weakened binding; strength is not graded here.

B1: HAdV-C5 viral protein IIIa in infected cells (protein, UniProt P12537 1-570)
chain: MMQDATDPAVRAALQSQPSGLNSTDDWRQVMDRIMSLTARNPDAFRQQPQANRLSAILEAVVPARANPTHEKVLAIVNALAENRAIRPDEAGLVYDALLQRVARYNSGNVQTNLDRLVGDVREAVAQRERAQQQGNLGSMVALNAFLSTQPANVPRGQEDYTNFVSALRLMVTETPQSEVYQSGPDYFFQTSRQGLQTVNLSQAFKNLQGLWGVRAPTGDRATVSSLLTPNSRLLLLLIAPFTDSGSVSRDTYLGHLLTLYREAIGQAHVDEHTFQEITSVSRALGQEDTGSLEATLNYLLTNRRQKIPSLHSLNSEEERILRYVQQSVSLNLMRDGVTPSVALDMTARNMEPGMYASNRPFINRLMDYLHRAAAVNPEYFTNAILNPHWLPPPGFYTGGFEVPEGNDGFLWDDIDDSVFSPQPQTLLELQQREQAEAALRKESFRRPSSLSDLGAAAPRSDASSPFPSLIGSLTSTRTTRPRLLGEEEYLNNSLLQPQREKNLPPAFPNNGIESLVDKMSRWKTYAQEHRDVPGPRPPTRRQRHDRQRGLVWEDDDSADDSSVLDLGGS
In the case of B1, the binding result in assay [1] and in assay [2] was “binds” in each case.

The values above are taken from article PMC9242475.
